In paper PMC13598120 one finds binding data, which are given here for two substances.

By UniProt entry, the sequences of proteins in these tests, tags left out.
UniProt P54132: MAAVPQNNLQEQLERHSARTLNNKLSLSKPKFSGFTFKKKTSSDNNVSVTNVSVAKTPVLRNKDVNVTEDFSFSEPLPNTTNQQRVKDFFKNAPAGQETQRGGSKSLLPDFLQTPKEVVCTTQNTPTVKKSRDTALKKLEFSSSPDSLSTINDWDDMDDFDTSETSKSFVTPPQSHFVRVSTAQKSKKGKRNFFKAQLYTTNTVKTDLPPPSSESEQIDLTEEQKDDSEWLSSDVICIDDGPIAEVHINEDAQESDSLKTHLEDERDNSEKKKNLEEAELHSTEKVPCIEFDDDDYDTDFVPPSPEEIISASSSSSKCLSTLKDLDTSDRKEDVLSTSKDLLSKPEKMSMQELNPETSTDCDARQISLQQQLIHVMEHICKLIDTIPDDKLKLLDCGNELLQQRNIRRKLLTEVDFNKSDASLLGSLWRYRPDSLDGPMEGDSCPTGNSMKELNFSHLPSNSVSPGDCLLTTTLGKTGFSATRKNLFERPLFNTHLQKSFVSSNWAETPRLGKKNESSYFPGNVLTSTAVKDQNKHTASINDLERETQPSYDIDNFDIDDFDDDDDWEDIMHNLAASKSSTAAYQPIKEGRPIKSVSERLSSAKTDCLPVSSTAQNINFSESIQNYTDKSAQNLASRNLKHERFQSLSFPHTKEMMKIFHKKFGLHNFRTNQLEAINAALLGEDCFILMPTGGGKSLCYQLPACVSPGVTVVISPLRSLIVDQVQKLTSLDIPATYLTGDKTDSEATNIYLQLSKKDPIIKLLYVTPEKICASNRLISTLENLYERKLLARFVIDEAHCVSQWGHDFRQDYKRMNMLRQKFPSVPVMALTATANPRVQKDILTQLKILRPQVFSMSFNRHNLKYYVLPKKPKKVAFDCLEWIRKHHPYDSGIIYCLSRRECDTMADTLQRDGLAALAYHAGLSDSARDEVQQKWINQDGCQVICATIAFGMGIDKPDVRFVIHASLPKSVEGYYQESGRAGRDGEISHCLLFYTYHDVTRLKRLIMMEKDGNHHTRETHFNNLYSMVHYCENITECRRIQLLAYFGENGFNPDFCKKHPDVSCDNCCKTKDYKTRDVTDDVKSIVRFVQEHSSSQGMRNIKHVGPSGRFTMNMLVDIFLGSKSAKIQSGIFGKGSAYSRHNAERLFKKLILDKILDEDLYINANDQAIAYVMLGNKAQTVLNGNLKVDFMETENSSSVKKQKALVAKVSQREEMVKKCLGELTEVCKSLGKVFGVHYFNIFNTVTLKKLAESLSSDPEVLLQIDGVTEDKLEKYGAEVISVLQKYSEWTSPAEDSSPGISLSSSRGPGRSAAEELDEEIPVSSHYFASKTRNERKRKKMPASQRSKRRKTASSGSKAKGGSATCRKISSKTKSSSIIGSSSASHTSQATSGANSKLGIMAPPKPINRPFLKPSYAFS
UniProt Q9H4L4: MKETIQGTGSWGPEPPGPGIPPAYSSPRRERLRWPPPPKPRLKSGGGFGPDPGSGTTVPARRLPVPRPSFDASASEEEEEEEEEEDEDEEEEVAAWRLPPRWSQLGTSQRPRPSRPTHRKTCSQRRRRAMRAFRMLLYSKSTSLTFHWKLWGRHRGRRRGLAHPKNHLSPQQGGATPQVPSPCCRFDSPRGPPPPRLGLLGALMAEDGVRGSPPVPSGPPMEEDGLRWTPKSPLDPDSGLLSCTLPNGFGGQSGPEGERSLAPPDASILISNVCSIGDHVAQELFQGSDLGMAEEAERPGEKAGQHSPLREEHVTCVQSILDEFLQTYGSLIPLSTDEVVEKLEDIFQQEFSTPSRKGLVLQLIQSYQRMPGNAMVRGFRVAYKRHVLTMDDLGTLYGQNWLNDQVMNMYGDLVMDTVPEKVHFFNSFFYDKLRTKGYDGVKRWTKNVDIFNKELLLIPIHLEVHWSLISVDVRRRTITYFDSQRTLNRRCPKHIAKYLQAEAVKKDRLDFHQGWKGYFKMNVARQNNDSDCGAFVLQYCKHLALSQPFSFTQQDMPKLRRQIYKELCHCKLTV

In the assay the target is T1, Flag-tagged GNL3 (Flag-GNL3), wild type (human) (UniProt Q9BVP2).
T1 sequence: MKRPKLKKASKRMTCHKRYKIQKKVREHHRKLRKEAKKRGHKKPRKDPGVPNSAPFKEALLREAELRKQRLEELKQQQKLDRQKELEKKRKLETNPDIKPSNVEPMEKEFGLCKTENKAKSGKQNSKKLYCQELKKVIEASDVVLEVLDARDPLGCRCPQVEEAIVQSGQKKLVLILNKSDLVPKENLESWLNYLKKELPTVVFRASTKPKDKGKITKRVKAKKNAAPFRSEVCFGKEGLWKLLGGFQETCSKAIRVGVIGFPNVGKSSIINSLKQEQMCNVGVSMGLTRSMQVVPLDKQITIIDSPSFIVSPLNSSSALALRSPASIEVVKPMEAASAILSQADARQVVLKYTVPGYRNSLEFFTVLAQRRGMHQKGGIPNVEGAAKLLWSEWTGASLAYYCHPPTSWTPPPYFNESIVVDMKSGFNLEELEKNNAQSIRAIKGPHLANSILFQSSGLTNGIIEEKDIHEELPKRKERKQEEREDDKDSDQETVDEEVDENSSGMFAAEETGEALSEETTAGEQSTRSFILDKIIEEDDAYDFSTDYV
Nature of the assay: affinity purification with mass spectrometry; 293 cells stably expressing control or Flag-GNL3; NP40 lysis buffer; anti-Flag (M2) agarose, 4 C, 4 h; elution with Flag peptide; LC-MS/MS.

These are yes or no findings as the source states them, for the method shown. Binding seen in cells or lysates may run through a third protein. These calls come from enrichment with a bait or labelling near it, and not all partners need be listed. Where a sequence is shown, tags or fusion partners need not be part of it.

As to “BLM, endogenous (from UniProt P54132 1-1417)”, the binding entry is listed as “binds”. The value for “SENP3, endogenous (from UniProt Q9H4L4 1-574) (enzyme)” was “binds”.
